Assay results reported in US20150183820A1.
Positions count from the first letter of the chain named. These are yes or no findings as the source states them, for the method shown. Binding can be weak; no strength is given.

Tests used:
[1] = target: Fc region of human immunoglobulin (human); test: SPR, KD from 1:1 Langmuir fit at each pH, human Fc immobilised; plotted as 1/KD against pH
[2] = target: Fc region of human immunoglobulin (human); test: SPR, KD at each pH standardised by KD at pH 7.4, human Fc immobilised

B1: M-PG19 (designed binder)
chain: MDTYKLILNGKTLKGETTTEAVDAATAEKVFKHYANEHGVHGHWTYDPETKTFTVTE
binding [1]: binds | binding [2]: binds

B2: M-PG07 (designed binder)
chain: B1 chain with H33Q, H41D, H43E
binding [1]: binds | binding [2]: binds
